Test results from PMC11169420, “The kinase ZYG-1 phosphorylates the cartwheel protein SAS-5 to drive centriole assembly in C. elegans” (EMBO Reports, 2024).
No constants are given. Whether binding was seen depends on the method and setting. Binding calls can cover weak binding; strength is not graded here. Where a sequence is shown, tags or fusion partners need not be part of it.

Biological target: GST-ZYG-1 PB3 domain fragment (C. elegans)
Experiment: pull-down; GST-ZYG-1 fragment baits (4.32 mM as printed) on magnetic glutathione beads, blocked with Odyssey blocking buffer; full-length SAS-5 prey (0.2 mM as printed) 1 h at 4 °C; washed with 50 mM Tris pH 8.0, 300 mM NaCl, 5 mM DTT; immunoblot with anti-GST and anti-SAS-5; GST alone as negative control; both purified

B1: SAS-5::His6, full-length, refolded in vitro (protein, UniProt Q20010 1-404)
chain: MGNNYDDLPCSIYFKKPTVQEFVDQPRVFEDSEVPAFQEVLQLPQERTKPPVPSTQPIVAAVEVAKKKSCLSAPKPRKEPPSHPALRQKTVAFGKTVNVSQTVEGTSRNSKKVLASTMSAQNTTTTEEQAAENWRDAMKTELQTIRTEIQEETARRQEELNAQNLVKMQELMSNFFQKITIPKQQAIEPVEKDKENFHESPRQSRQQKPASKIASAREVIKRDGVIPPEALTIIEQRLRSDPMFRQQIDNVLADAECDANRAAYSPPPPMSEVRYGSGVNPALMRETLTVERSIRYDNGLASIDSRQWTNERRDNRAPDSYRTYEPDQPCHSLYQKGQSISYYPSEAAGKTTARNNRTGYYVEDSSDHEEDVVVNKRGQNYHEQAVPETPAERERRIREKYARRK
binding: binds
